No constants are given. Whether binding was seen depends on the method and setting.
Legend:
[1] = target: T1, PI3Kα: p110α(2-1068)W1057A/I1058A/F1059A + p85(322-600) (human) (UniProt P42336+P27986); assay: condition: 300–500 μM RAS in the syringe, 30–50 μM PI3K in the cell; ITC; GMPPNP-bound RAS (300–500 μM) in the syringe, PI3K isoform or PI3Kα-RBD (30–50 μM) in the cell; 25 °C; 20 mM HEPES pH 7.4, 150 mM NaCl, 5 mM MgCl2, 1 mM TCEP; one set of sites; duplicates; both purified
[2] = target: PI3Kα-RBD, PIK3CA-RBD(157-289) (human) (UniProt P42336); assay: condition: 300–500 μM in the syringe into 30–50 μM in the cell; ITC; RAS GTPase (GMPPNP-bound, 300–500 μM) in the syringe, PI3K isoform or PI3Kα-RBD (30–50 μM) in the cell; 25 °C; 20 mM HEPES pH 7.4, 150 mM NaCl, 5 mM MgCl2, 1 mM TCEP; one set of sites; two replicates; both purified
[3] = target: T1, PI3Kα: p110α(2-1068)W1057A/I1058A/F1059A + p85(322-600) (human); assay: as above

By UniProt entry, the sequences of proteins in these tests, tags left out. Where a name states a change or a piece, a line headed by the entry shows the natural chain unless it says otherwise. Residues count along the entry.
UniProt P42336, residues 157-289: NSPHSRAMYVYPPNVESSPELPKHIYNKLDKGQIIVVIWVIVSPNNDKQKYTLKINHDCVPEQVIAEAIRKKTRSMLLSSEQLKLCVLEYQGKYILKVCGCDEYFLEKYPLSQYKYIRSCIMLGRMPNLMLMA
UniProt Q92963, residues 2-219: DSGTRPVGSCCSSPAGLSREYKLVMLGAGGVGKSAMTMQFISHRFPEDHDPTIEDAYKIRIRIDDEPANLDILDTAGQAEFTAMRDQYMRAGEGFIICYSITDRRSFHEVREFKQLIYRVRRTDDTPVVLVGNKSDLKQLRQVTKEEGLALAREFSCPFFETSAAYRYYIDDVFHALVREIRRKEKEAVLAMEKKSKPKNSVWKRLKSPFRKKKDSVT

Row | Substance | binding [1] | binding [2] | binding [3]
1 | RIT1(2-219) (from UniProt Q92963 2-219) (domain or fragment) | no binding | – | –
2 | RIT1(2-219), GMPPNP-bound (from UniProt Q92963 2-219) (domain or fragment) | – | no binding | no binding

From PMC11718114
